Data set [1] is described as follows: Association of [3H]POPC with lipoproteins in whole plasma and TLP (centrifugation, radioactivity). Further details: species or system human.
The conditions of data set [2]: for half time for the disappearance of [3H]cholate: dialysis at 4 C.

Like-named read-outs stand apart in the source and are kept apart here.

Consider `CCCCCCCC/C=C\CCCCCCCC(=O)O[C@H](COC(=O)CCCCCCCCCCCCCCC)COP(=O)([O-])OCC[N+](C)(C)C` [POPC, 1-palmitoyl-2-oleoyl (PO) PC], for which the “[3H]POPC sedimented by centrifugation” value in data set [1] (incubated with plasma and cholate before dialysis) was “little or no”. The “POPC sedimented by centrifugation” value in data set [1] (incubated with plasma only) is given as approximately 90%.
For `C[C@H](CCC(=O)[O-])[C@H]1CC[C@H]2[C@@H]3[C@H](O)C[C@@H]4C[C@H](O)CC[C@]4(C)[C@H]3C[C@H](O)[C@]12C.[Na+]` [cholate, sodium cholate], the “half time of [3H]cholate disappearance during dialysis” value in data set [2] (TLP (TLP-protein 2.0 mg/mL)) stood at 3.0 h; in data set [2] (TLP+1.6 mg/mL POPC), 3.5 h; in data set [2] (cholate), 2.7 h. For the same compound, the “half time for the disappearance of [3H]cholate” value came out at 3.5 h in data set [2] (cholate only) and 4.5 h in data set [2] (cholate+TLP).

Values taken from US20060160721A1, “Method of plasma lipidation to prevent, inhibit and/or reverse atherosclerosis” (BAYLOR COLLEGE OF MEDICINE, priority 2004, published 2006).
